Measured values as given in patent US11834696B2, “Antimicrobial susceptibility testing with large-volume light scattering imaging and deep learning video microscopy” (Arizona Board of Regents on behalf of Arizona State …, priority 2017, dated 2023).

Tests used:
[1] = system: E. coli; experiment: Deep learning video microscopy-based antimicrobial susceptibility testing (DLVM-AST); format: cell-based, Escherichia coli (ATCC 43888); conditions: time needed to determine MIC; triplicate
[2] = system: E. coli; experiment: AST without DL (division feature only, cell counting from the videos); format: cell-based, Escherichia coli (ATCC 43888); conditions: triplicate
Procedure: To further validate the DLVM-AST method, we counted the total number of bacteria cells (Ntotal) from the videos (as shown in FIG. 9), and plotted Ntotal (mean±std) vs. time for PMB at various concentrations (as shown in FIG. 11C).
Growth and preparation of E. coli. Frozen E. coli strains were thawed, and 50 μL of which were cultured in 5 mL of Luria-Bertani (LB) medium (Per liter: 10 g peptone 140, 5 g yeast extract, and 5 g sodium chloride) at 37° C. and 150 rpm for 16 hours. Saturated cultures in the volume of 20 μL were diluted into 5 mL of fresh LB medium, and growth continued at 37° C. with 150 rpm for 1 hour to attain a logarithmic phase of growth. Bacterial cells were collected by centrifugation at 450 g for 5 min and suspended in urine to a concentration of 2×10^7 cells/mL^36. This concentration was determined by measuring the extinction coefficients for E. coli from the Optical Density (OD600) reading taken with a spectrophototometer (NanoDrop™ 2000/2000c Spectrophotometers, Thermo Scientific). The calibration factor for bacterial cell cultures estimation was 8×10^8 cells/mL per OD600 unit. Before use, the bacteria-spiked urine samples were filtered using a 5 μm syringe filter (EMD Millipore) to remove large particles.
AST with video microscopy. The microfluidic chip was placed on an inverted microscope (Olympus IX-81) with a 40× phase contrast objective lens and imaged with a CCD camera (Pike-032B, Allied Vision Technologies, Newburyport, Mass.). A 200-μL bacterial suspension (2×10^7 cells/mL) was mixed with an equal volume of antibiotic solution for each antibiotic concentration or an equal volume of water as a control experiment. These mixed solutions were injected into different microfluidic channels simultaneously. […] Videos of the bacterial cells were recorded at 100 frames per second (fps) immediately (0 min) and after every 30 min. […] To include enough cells for reliable results, we integrated bacterial cells from three videos recorded from different experiments. […]

SMILES | assay time, DLVM-AST [1] [h] | assay time, AST Without DL [2]
[H]/N=C(/N)N[C@H]1[C@H](O)[C@@H](O)[C@H](O[C@@H]2O[C@@H](C)[C@](O)(C=O)[C@H]2O[C@@H]2O[C@@H](CO)[C@H](O)[C@@H](O)[C@@H]2NC)[C@@H](N/C(N)=N\[H])[C@@H]1O [Streptomycin, streptomycin] | 3 | 4/4 h
CC1(C)S[C@@H]2[C@H](NC(=O)[C@H](N)c3ccccc3)C(=O)N2[C@H]1C(=O)O [Ampicillin, ampicillin] | 2.5 to 3 | 4 h
C[C@H]1[C@H](NC(=O)/C(=N\OC(C)(C)C(=O)O)c2csc(N)n2)C(=O)N1S(=O)(=O)O [Aztreonam, aztreonam] | 1.5 | 3 h
